The text below walks through data of the supplement of paper PMC4604168 (melanoma cell lines).

This is one part of the list. Many values rest on one well or one pass, so single values are uncertain.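 Imaging used 1,536-well plates; nuclei positive for cleaved PARP by antibody were divided by total DNA-stained nuclei to yield the apoptosis fraction. Doses for screening kept most cells viable, and cell lines differ markedly in resting and induced cleaved-PARP levels.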

The subject of the assay is UACC62. The assay can be described thus: cleaved PARP positive nuclei fraction relative to DMSO control; melanoma cells; higher = more apoptosis. The note with it: library dose: low library concentration; 72 h.
Turning to `Cc1cn(-c2cc(NC(=O)c3ccc(C)c(Nc4nccc(-c5cccnc5)n4)c3)cc(C(F)(F)F)c2)cn1` [nilotinib] + NC(=O)c1ccc(N(C(N)=O)c2c(F)cccc2F)nc1-c1ccc(F)cc1F [VX702] (first compound 0.2 µM, partner dose 0.4 µM), the “cleaved PARP positive nuclei fraction” value turned out to be 215%.

Take `CC[C@]1(O)C[C@H]2CN(CCc3c([nH]c4ccccc34)[C@@](C(=O)OC)(c3cc4c(cc3OC)N(C=O)[C@H]3[C@@](O)(C(=O)OC)[C@H](OC(C)=O)[C@]5(CC)C=CCN6CC[C@]43[C@@H]65)C2)C1` [vincristine] + C[C@@H](N)c1ccc(C(=O)Nc2ccnc3[nH]ccc23)cc1 [RKI983] (first compound 0.0001 µM, partner dose 0.4 µM): the “cleaved PARP positive nuclei fraction” value was determined as 1070%.

As to `Cc1cn(-c2cc(NC(=O)c3ccc(C)c(Nc4nccc(-c5cccnc5)n4)c3)cc(C(F)(F)F)c2)cn1` [nilotinib] + CC(C)C[C@H](NC(=O)[C@H](Cc1ccccc1)NC(=O)c1cnccn1)B(O)O [Bortezomib] (first compound 0.2 µM, partner dose 0.001 µM), the “cleaved PARP positive nuclei fraction” value stood at 50.4%. As for `O=C(Nc1cc(C(F)(F)F)cc(C(F)(F)F)c1)c1cc(Cl)ccc1O` + CC(=O)c1c(C)c2cnc(Nc3ccc(N4CCNCC4)cn3)nc2n(C2CCCC2)c1=O [palbociclib] (first compound 0.016 µM, partner dose 0.04 µM), the figure is 145%; as for `O=C(Nc1cc(C(F)(F)F)cc(C(F)(F)F)c1)c1cc(Cl)ccc1O` + OCc1c[nH]c2ccccc12 [Indole-3-carbinol] (first compound 0.016 µM, partner dose 0.8 µM), 315%; as for `COc1cc([C@@H]2c3cc4c(cc3[C@@H](O[C@@H]3O[C@@H]5CO[C@@H](C)O[C@H]5[C@H](O)[C@H]3O)[C@H]3COC(=O)[C@H]23)OCO4)cc(OC)c1O` [etoposide] + CS(=O)(=O)CCNCc1ccc(-c2ccc3ncnc(Nc4ccc(OCc5cccc(F)c5)c(Cl)c4)c3c2)o1 [lapatinib] (first compound 0.02 µM, partner dose 0.8 µM), 71.7%. Next, `CCCCCCCCCCCCCCCCCCOP(=O)([O-])OC1CC[N+](C)(C)CC1` [Perifosine] + NC1(c2ccc(-c3nc4ccn5c(=O)[nH]nc5c4cc3-c3ccccc3)cc2)CCC1 [MK2206] (first compound 0.4 µM, partner dose 0.4 µM): 92.9%; `N#CC[C@H](C1CCCC1)n1cc(-c2ncnc3[nH]ccc23)cn1` [ruxolitinib] + COc1ccc(Cl)c(Nc2nc3ccccc3nc2NS(=O)(=O)c2cccc(NC(=O)C(C)(C)N)c2)c1 [XL147] (first compound 1 µM, partner dose 0.8 µM): 58.2%. Next, `O=C(Nc1cc(C(F)(F)F)cc(C(F)(F)F)c1)c1cc(Cl)ccc1O` + COc1ccc(C2=N[C@@H](c3ccc(Cl)cc3)[C@@H](c3ccc(Cl)cc3)N2C(=O)N2CCNC(=O)C2)c(OC(C)C)c1 [Nutlin-3] (first compound 0.016 µM, partner dose 0.1 µM): 94.1%. As to `Cc1cc(Nc2cc(N3CCN(C)CC3)nc(Sc3ccc(NC(=O)C4CC4)cc3)n2)n[nH]1` [Tozasertib] + CC[C@]1(O)C[C@H]2CN(CCc3c([nH]c4ccccc34)[C@@](C(=O)OC)(c3cc4c(cc3OC)N(C=O)[C@H]3[C@@](O)(C(=O)OC)[C@H](OC(C)=O)[C@]5(CC)C=CCN6CC[C@]43[C@@H]65)C2)C1 [vincristine] (first compound 0.006 µM, partner dose 0.0001 µM), the “cleaved PARP positive nuclei fraction” value turned out to be 189%. For the molecule `CC[C@]1(O)C[C@H]2CN(CCc3c([nH]c4ccccc34)[C@@](C(=O)OC)(c3cc4c(cc3OC)N(C=O)[C@H]3[C@@](O)(C(=O)OC)[C@H](OC(C)=O)[C@]5(CC)C=CCN6CC[C@]43[C@@H]65)C2)C1` [vincristine] + COc1ccc(Cl)c(Nc2nc3ccccc3nc2NS(=O)(=O)c2cccc(NC(=O)C(C)(C)N)c2)c1 [XL147] (first compound 0.0001 µM, partner dose 0.8 µM), the “cleaved PARP positive nuclei fraction” value was determined as 121%. As for `Cc1cn(-c2cc(NC(=O)c3ccc(C)c(Nc4nccc(-c5cccnc5)n4)c3)cc(C(F)(F)F)c2)cn1` [nilotinib] + COc1ccc(Cl)c(Nc2nc3ccccc3nc2NS(=O)(=O)c2cccc(NC(=O)C(C)(C)N)c2)c1 [XL147] (first compound 0.2 µM, partner dose 0.8 µM), the “cleaved PARP positive nuclei fraction” value is 54.6%.

Take `Cc1cc(Nc2cc(N3CCN(C)CC3)nc(Sc3ccc(NC(=O)C4CC4)cc3)n2)n[nH]1` [Tozasertib] + Nc1nc(F)nc2c1ncn2[C@@H]1O[C@H](CO)[C@@H](O)[C@@H]1O [fludarabine] (first compound 0.006 µM, partner dose 0.2 µM): the “cleaved PARP positive nuclei fraction” value is 335%. Next, `O=C(/C=C/c1cccnc1)NCCCCC1CCN(C(=O)c2ccccc2)CC1` + CCCS(=O)(=O)Nc1ccc(F)c(C(=O)c2c[nH]c3ncc(Cl)cc23)c1F [PLX4720] (first compound 0.01 µM, partner dose 0.08 µM): 67.9%; `O=C(/C=C/c1cccnc1)NCCCCC1CCN(C(=O)c2ccccc2)CC1` + CC(=O)c1c(C)c2cnc(Nc3ccc(N4CCNCC4)cn3)nc2n(C2CCCC2)c1=O [palbociclib] (first compound 0.01 µM, partner dose 0.04 µM): 117%; `CCCCCCCCCCCCCCCCCCOP(=O)([O-])OC1CC[N+](C)(C)CC1` [Perifosine] + CCCCCCCCc1ccc(CCC(N)(CO)CO)cc1 [fingolimod] (first compound 0.4 µM, partner dose 2 µM): 54.1%. Next, `CC[C@]1(O)C[C@H]2CN(CCc3c([nH]c4ccccc34)[C@@](C(=O)OC)(c3cc4c(cc3OC)N(C=O)[C@H]3[C@@](O)(C(=O)OC)[C@H](OC(C)=O)[C@]5(CC)C=CCN6CC[C@]43[C@@H]65)C2)C1` [vincristine] + Nc1ncn([C@H]2C[C@H](O)[C@@H](CO)O2)c(=O)n1 [decitabine] (first compound 0.0001 µM, partner dose 0.1 µM): 196%; `O=c1[nH]nc(Sc2ncc([N+](=O)[O-])s2)n1-c1ccc2c(c1)OCCO2` + CC1(C)CCC(c2ccc(Cl)cc2)=C(CN2CCN(c3ccc(C(=O)NS(=O)(=O)c4ccc(N[C@H](CCN5CCOCC5)CSc5ccccc5)c(S(=O)(=O)C(F)(F)F)c4)cc3)CC2)C1 [ABT263] (first compound 0.2 µM, partner dose 0.4 µM): 75.7%. As for `O=c1[nH]nc(Sc2ncc([N+](=O)[O-])s2)n1-c1ccc2c(c1)OCCO2` + C=C(c1ccc(C(=O)O)cc1)c1cc2c(cc1C)C(C)(C)CCC2(C)C [Bexarotene] (first compound 0.2 µM, partner dose 2 µM), the figure is 53.4%. As to `CC[C@]1(O)C[C@H]2CN(CCc3c([nH]c4ccccc34)[C@@](C(=O)OC)(c3cc4c(cc3OC)N(C=O)[C@H]3[C@@](O)(C(=O)OC)[C@H](OC(C)=O)[C@]5(CC)C=CCN6CC[C@]43[C@@H]65)C2)C1` [vincristine] + COc1ccc(C2=N[C@@H](c3ccc(Cl)cc3)[C@@H](c3ccc(Cl)cc3)N2C(=O)N2CCNC(=O)C2)c(OC(C)C)c1 [Nutlin-3] (first compound 0.0001 µM, partner dose 0.1 µM), the “cleaved PARP positive nuclei fraction” value was found to be 74.9%. Next, `COc1cc([C@@H]2c3cc4c(cc3[C@@H](O[C@@H]3O[C@@H]5CO[C@@H](C)O[C@H]5[C@H](O)[C@H]3O)[C@H]3COC(=O)[C@H]23)OCO4)cc(OC)c1O` [etoposide] + C[C@@H](Oc1cc(-c2cnn(C3CCNCC3)c2)cnc1N)c1c(Cl)ccc(F)c1Cl [Crizotinib] (first compound 0.02 µM, partner dose 0.2 µM): 95.4%. Next, `CC[C@]1(O)C[C@H]2CN(CCc3c([nH]c4ccccc34)[C@@](C(=O)OC)(c3cc4c(cc3OC)N(C=O)[C@H]3[C@@](O)(C(=O)OC)[C@H](OC(C)=O)[C@]5(CC)C=CCN6CC[C@]43[C@@H]65)C2)C1` [vincristine] + OCc1c[nH]c2ccccc12 [Indole-3-carbinol] (first compound 0.0001 µM, partner dose 0.8 µM): 119%; `O=c1[nH]nc(Sc2ncc([N+](=O)[O-])s2)n1-c1ccc2c(c1)OCCO2` + Cn1cnc2c(F)c(Nc3ccc(Br)cc3Cl)c(C(=O)NOCCO)cc21 [selumetinib] (first compound 0.2 µM, partner dose 0.015 µM): 138%; `CC[C@]1(O)C[C@H]2CN(CCc3c([nH]c4ccccc34)[C@@](C(=O)OC)(c3cc4c(cc3OC)N(C=O)[C@H]3[C@@](O)(C(=O)OC)[C@H](OC(C)=O)[C@]5(CC)C=CCN6CC[C@]43[C@@H]65)C2)C1` [vincristine] + CS(=O)(=O)c1ccc(C(=O)Nc2ccc(Cl)c(-c3ccccn3)c2)c(Cl)c1 [vismodegib] (first compound 0.0001 µM, partner dose 1 µM): 591%. Turning to `O=c1[nH]nc(Sc2ncc([N+](=O)[O-])s2)n1-c1ccc2c(c1)OCCO2` + Nc1ccn([C@@H]2O[C@H](CO)[C@@H](O)C2(F)F)c(=O)n1 [gemcitabine] (first compound 0.2 µM, partner dose 0.0004 µM), the “cleaved PARP positive nuclei fraction” value turned out to be 260%. As for `CCCCCCCCCCCCCCCCCCOP(=O)([O-])OC1CC[N+](C)(C)CC1` [Perifosine] + Cc1cc(Nc2cc(N3CCN(C)CC3)nc(/C=C/c3ccccc3)n2)n[nH]1 [ENMD2076] (first compound 0.4 µM, partner dose 0.04 µM), the figure is 152%.
